Reference: the supplement of paper PMC7666118
The other results are listed elsewhere or left out.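 Rule for the calls: active = dose-dependent thermal stabilisation significant by F-test of dose-response against flat model at 10% FDR; inactive = not significant.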

By UniProt entry, the sequences of proteins in these tests, tags left out. Where a name states a change or a piece, a line headed by the entry shows the natural chain unless it says otherwise.
UniProt Q9Y4X0: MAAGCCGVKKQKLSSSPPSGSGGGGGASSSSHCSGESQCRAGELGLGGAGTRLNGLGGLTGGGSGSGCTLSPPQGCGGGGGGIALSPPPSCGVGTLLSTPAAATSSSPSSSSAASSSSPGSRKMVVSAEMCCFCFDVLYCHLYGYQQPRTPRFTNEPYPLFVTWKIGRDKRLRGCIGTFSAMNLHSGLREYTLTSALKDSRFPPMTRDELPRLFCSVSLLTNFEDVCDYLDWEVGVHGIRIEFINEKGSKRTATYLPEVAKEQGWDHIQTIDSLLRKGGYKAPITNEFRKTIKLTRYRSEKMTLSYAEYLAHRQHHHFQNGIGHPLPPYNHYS
UniProt Q96IU4: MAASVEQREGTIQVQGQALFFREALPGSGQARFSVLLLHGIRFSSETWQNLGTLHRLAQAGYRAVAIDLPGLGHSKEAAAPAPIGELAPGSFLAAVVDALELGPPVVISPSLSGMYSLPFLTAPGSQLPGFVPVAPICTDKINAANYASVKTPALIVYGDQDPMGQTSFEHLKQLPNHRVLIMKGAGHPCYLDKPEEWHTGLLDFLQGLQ
UniProt Q9NP61: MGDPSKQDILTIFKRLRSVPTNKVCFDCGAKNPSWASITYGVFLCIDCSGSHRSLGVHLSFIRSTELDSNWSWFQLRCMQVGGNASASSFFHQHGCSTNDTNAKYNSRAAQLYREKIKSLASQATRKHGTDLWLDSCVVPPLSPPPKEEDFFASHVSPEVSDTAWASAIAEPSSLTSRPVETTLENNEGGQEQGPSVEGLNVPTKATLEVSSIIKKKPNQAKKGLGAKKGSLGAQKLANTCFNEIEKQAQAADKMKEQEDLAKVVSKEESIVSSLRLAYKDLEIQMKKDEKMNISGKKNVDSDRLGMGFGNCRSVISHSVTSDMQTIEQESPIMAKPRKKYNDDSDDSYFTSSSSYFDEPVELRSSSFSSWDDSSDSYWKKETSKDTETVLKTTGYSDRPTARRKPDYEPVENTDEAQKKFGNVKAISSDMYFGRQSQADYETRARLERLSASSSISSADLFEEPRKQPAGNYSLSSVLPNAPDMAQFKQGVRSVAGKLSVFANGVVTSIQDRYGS
UniProt Q96BT7: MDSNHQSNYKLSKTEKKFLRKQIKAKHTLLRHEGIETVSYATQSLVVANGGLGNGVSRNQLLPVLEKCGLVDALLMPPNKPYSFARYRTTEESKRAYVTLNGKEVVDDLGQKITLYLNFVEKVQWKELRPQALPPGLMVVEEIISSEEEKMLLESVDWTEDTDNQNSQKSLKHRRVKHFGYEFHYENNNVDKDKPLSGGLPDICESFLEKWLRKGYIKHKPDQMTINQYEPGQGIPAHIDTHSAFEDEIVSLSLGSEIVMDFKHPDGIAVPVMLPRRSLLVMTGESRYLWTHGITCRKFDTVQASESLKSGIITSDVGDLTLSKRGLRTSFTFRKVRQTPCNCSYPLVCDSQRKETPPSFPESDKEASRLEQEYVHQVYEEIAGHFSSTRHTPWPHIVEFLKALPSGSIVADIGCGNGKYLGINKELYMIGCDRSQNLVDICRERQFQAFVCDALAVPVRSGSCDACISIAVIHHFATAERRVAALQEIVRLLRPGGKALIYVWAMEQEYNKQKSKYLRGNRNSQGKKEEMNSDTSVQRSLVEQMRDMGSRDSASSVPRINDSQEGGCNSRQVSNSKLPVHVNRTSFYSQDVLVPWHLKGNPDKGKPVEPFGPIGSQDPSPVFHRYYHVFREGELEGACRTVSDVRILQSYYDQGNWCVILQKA
UniProt P53396: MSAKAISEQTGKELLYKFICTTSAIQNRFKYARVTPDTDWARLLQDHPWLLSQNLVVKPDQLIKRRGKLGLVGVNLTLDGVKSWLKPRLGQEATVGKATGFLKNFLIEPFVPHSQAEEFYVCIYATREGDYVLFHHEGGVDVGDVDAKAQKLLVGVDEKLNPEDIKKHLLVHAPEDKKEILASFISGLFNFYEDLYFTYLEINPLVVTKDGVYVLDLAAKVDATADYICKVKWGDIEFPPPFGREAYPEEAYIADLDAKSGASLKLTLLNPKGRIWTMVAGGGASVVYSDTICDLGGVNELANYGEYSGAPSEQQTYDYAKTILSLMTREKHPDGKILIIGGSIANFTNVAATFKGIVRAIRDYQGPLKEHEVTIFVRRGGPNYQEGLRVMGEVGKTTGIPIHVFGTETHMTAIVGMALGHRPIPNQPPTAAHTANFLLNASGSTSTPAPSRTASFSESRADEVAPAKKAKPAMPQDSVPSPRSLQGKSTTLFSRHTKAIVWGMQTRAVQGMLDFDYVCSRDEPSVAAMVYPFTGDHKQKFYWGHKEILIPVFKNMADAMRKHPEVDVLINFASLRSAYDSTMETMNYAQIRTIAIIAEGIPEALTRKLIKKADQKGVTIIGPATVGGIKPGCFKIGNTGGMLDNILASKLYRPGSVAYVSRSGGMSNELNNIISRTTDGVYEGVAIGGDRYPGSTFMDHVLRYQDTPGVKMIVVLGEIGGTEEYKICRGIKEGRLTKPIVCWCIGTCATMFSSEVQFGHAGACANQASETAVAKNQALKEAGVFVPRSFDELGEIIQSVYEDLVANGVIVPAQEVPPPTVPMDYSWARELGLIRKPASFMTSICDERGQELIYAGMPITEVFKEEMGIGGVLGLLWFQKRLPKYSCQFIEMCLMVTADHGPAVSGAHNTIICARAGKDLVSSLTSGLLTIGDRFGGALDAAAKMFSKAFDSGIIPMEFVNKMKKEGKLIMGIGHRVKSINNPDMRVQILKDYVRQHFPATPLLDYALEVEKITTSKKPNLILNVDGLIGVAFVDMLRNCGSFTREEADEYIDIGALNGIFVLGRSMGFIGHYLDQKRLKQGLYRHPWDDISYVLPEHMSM
UniProt Q07960: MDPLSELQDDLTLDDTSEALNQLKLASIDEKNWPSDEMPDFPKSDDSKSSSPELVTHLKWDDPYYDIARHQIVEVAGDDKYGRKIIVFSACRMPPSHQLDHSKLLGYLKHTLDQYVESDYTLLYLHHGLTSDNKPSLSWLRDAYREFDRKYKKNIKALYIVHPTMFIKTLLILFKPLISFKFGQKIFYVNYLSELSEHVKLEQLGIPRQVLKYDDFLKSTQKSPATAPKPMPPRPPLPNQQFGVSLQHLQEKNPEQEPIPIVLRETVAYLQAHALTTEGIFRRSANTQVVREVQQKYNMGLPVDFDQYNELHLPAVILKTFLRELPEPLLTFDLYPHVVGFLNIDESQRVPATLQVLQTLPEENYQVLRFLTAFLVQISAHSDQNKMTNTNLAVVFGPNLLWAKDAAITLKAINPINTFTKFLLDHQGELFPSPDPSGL
UniProt Q9H845: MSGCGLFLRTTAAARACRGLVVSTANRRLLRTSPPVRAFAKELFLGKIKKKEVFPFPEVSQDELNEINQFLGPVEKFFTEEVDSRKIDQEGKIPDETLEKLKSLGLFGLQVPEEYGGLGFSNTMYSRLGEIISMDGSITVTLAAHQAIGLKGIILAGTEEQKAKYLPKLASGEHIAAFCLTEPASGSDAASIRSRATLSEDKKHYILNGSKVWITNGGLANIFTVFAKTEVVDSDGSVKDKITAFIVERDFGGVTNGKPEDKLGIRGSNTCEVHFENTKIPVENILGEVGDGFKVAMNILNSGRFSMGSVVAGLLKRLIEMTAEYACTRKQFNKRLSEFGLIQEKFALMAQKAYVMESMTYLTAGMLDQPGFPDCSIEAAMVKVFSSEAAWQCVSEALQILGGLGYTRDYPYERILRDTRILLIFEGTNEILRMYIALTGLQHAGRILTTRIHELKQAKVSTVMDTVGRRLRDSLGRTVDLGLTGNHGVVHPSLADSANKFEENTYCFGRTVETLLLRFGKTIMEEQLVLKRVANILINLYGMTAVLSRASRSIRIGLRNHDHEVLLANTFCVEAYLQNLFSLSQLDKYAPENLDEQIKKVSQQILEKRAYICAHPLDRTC
UniProt Q9BXS5: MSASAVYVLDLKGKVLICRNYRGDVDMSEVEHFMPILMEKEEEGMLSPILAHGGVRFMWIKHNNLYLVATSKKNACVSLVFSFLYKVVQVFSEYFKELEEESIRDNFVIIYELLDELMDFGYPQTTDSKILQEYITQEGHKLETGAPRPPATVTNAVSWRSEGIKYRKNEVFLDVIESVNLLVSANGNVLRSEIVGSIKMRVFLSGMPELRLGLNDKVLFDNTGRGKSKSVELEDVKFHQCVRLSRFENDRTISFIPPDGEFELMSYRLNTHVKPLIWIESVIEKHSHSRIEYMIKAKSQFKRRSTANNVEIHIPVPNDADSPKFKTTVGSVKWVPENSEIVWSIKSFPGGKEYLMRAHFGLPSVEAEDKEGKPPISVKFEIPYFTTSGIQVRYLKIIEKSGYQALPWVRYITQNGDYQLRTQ
UniProt Q6P6C2: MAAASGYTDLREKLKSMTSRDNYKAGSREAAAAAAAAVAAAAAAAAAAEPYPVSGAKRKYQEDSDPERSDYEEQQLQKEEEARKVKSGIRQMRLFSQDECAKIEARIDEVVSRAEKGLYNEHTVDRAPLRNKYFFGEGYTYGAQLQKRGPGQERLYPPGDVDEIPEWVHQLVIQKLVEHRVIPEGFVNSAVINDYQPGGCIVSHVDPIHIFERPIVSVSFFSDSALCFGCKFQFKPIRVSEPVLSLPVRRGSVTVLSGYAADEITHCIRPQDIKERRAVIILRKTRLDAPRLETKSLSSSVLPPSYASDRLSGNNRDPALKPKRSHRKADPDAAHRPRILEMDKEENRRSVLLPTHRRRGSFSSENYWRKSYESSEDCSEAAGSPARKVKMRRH
UniProt Q92625: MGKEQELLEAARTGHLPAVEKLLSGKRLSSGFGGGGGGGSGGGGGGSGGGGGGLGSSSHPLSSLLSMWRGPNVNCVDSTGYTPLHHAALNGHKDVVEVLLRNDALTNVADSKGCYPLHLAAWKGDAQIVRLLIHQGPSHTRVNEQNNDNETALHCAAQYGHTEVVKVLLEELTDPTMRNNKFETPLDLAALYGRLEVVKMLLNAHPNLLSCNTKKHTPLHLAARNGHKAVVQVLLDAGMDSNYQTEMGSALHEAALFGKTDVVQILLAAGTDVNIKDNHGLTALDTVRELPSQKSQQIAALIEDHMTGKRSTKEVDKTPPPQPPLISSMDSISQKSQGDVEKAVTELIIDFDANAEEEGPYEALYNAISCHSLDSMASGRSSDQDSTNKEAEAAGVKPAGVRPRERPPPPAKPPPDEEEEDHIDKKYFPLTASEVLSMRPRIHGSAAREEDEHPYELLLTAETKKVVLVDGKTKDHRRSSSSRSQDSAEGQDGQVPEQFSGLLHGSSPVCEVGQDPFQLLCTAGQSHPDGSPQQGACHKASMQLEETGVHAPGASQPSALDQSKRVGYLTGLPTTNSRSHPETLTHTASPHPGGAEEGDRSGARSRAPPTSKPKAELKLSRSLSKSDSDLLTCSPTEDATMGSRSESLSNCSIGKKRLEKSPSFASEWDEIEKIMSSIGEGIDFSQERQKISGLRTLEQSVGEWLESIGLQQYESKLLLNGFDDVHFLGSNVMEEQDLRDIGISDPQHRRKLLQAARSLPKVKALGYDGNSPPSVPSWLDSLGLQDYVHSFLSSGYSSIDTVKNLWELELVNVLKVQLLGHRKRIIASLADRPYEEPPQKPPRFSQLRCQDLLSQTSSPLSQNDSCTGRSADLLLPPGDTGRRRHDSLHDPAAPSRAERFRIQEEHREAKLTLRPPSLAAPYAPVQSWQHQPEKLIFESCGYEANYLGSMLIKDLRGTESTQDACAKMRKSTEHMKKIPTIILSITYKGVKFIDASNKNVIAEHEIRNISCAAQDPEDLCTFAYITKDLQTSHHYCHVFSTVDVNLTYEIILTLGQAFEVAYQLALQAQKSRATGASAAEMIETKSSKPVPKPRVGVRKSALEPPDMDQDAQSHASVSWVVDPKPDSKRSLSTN
UniProt Q9Y2T2: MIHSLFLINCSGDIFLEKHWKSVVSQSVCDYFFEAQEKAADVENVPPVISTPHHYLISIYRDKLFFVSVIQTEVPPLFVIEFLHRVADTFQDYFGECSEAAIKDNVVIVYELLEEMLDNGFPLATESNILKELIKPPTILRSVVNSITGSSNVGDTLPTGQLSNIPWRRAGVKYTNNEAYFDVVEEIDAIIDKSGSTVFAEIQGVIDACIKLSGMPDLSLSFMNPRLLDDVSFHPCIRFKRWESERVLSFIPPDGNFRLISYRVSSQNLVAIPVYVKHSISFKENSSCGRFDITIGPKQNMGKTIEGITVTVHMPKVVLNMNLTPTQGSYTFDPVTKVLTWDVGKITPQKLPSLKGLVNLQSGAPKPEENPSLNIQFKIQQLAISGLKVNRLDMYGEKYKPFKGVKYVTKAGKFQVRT
UniProt Q9NXW9: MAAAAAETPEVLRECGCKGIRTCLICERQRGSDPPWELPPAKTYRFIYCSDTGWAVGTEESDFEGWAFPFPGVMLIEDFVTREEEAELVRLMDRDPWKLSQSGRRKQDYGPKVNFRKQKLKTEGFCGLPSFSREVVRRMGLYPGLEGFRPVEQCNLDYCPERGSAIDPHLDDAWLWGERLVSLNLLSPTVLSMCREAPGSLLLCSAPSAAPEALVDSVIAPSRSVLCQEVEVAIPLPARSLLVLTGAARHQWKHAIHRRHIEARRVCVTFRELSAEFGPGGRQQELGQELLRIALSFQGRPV

Compound: Nc1nc2c(ncn2[C@@H]2O[C@H](COP(=O)(O)OP(=O)(O)OP(=O)(O)O)[C@@H](O)[C@H]2O)c(=O)[nH]1
Experiment: dose-dependent thermal stabilisation call (2D-TPP, DLPTP, 10% FDR) (binary (1 = stabilised)); higher = stabilised by the compound
Settings: system: Jurkat gel-filtered lysate; concentration range 1-500 µM

Row | Target | dose-dependent thermal stabilisation call
1 | ANXA2 (UniProt P07355) | inactive: 0
2 | AFP (UniProt P02771) | inactive: 0
3 | APPL1 (UniProt Q9UKG1) | inactive: 0
4 | ACTR3B (UniProt Q9P1U1) | inactive: 0
5 | AMMECR1 (UniProt Q9Y4X0) | inactive: 0
6 | ABHD14B (UniProt Q96IU4) | inactive: 0
7 | ANAPC16 (UniProt Q96DE5) | inactive: 0
8 | ALDH5A1 (UniProt P51649) | inactive: 0
9 | ARFGAP3 (UniProt Q9NP61) | inactive: 0
10 | ALKBH8 (UniProt Q96BT7) | inactive: 0
11 | ACLY (UniProt P53396) | inactive: 0
12 | ARHGAP1 (UniProt Q07960) | inactive: 0
13 | ACAD9 (UniProt Q9H845) | inactive: 0
14 | AP1M1 (UniProt Q9BXS5) | active: 1
15 | AKAP13 (UniProt Q12802) | inactive: 0
16 | AP2B1 (UniProt P63010) | inactive: 0
17 | ADK (UniProt P55263) | inactive: 0
18 | ANXA6 (UniProt P08133) | inactive: 0

Reprinted at random: 2 entries already listed
Row | Target | dose-dependent thermal stabilisation call
8 | ALDH5A1 (UniProt P51649) | inactive: 0
17 | ADK (UniProt P55263) | inactive: 0

Remaining list, next part

Row | Target | dose-dependent thermal stabilisation call
19 | ALKBH5 (UniProt Q6P6C2) | inactive: 0
20 | AASDHPPT (UniProt Q9NRN7) | inactive: 0
21 | ARF5 (UniProt P84085) | active: 1
22 | ABR (UniProt Q12979) | active: 1
23 | ANKRD13A (UniProt Q8IZ07) | inactive: 0
24 | ABHD10 (UniProt Q9NUJ1) | inactive: 0
25 | ANKS1A (UniProt Q92625) | inactive: 0
26 | AGO1 (UniProt Q9UL18) | inactive: 0
27 | AGFG1 (UniProt P52594) | inactive: 0
28 | ANLN (UniProt Q9NQW6) | inactive: 0
29 | ABHD11 (UniProt Q8NFV4) | inactive: 0
30 | ACAT1 (UniProt P24752) | inactive: 0
31 | AP3M1 (UniProt Q9Y2T2) | inactive: 0
32 | ARHGAP17 (UniProt Q68EM7) | active: 1
33 | ALKBH4 (UniProt Q9NXW9) | inactive: 0
34 | ACADM (UniProt P11310) | active: 1
35 | ANKRD10 (UniProt Q9NXR5) | inactive: 0
36 | AKR1A1 (UniProt P14550) | active: 1
